Measurements taken from patent publication US20250144081A1, “METHODS FOR REDUCING ALCOHOL, DRUG, AND FOOD INTAKE” (The Scripps Research Institute, priority 2022, published 2025).
“Also recorded” adds a separate entry of the source.

Legend:
[1] = test system: MeCP2^308/Y mice; assay: DID paradigm in low drinking MeCP2^308/Y mice, alcohol intake and BALs; assay type: in vivo, mouse; details: PF-543 10 mg/kg i.p., p=0.06
[2] = test system: C57BL/6J mice; assay: blood alcohol levels (BALs) after alcohol injection, alcohol metabolism; assay type: in vivo, mouse

Cc1cc(CS(=O)(=O)c2ccccc2)cc(OCc2ccc(CN3CCC[C@@H]3CO)cc2)c1 [PF-543] was tested, and the “BALs at the end of the 4 h drinking session in MeCP2^308/Y mice” value [1] was “increased; also recorded: higher”.

For CCOc1ccc(-c2nc(-c3cccc4c3CCC4NCCO)no2)cc1OCC (stereo not drawn) [CYM-5442], the “alcohol metabolism (BALs after alcohol injection 3.5 g/kg)” value ([2]; CYM-5442 2.5 mg/kg i.p., male C57BL/6J mice, 2.5 mg/kg) was “did not affect; also recorded: does not alter”.

In the case of CC(C)Oc1ccc(-c2nc(-c3cccc4c3CC[C@@H]4NCCO)no2)cc1C#N [ozanimod, Ozanimod (RPC1063)], the “blood alcohol levels (BALs) 70 min after alcohol injection (alcohol metabolism)” value ([2]; ozanimod 0.1 and 0.3 mg/kg i.p., C57BL/6J mice) is reported as “without altering; also recorded: not affected”.
